These are yes or no findings as the source states them, for the method shown. In cells and extracts the contact can be indirect. Binding can be weak; no strength is given.
Biological target: T1, tetraspanin CD81 (rat (endogenous in fetal rat brain GCPs)) (UniProt Q62745)
T1 sequence: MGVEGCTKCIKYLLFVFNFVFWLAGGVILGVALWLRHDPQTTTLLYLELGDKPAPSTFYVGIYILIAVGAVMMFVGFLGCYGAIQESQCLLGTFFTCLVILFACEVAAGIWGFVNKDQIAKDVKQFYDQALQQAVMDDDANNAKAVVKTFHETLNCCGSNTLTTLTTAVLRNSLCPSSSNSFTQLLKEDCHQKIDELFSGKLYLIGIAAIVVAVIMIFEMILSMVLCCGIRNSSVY
Experiment: co-IP; rat GCP membrane/cytoskeletal pellet solubilised in 2% Brij 98, 5 mM MgCl2, 1 mM CaCl2 in TBS (37°C 20 min, then 4°C 40 min); supernatant incubated overnight at 4°C with antibody-loaded protein G-agarose beads; 3 washes with PBS; Western blot

With “Amyloid precursor protein (rat (endogenous in fetal rat brain GCPs))” the binding was “binds”.

Reference: paper PMC3653867
